Source: article PMC10163288
The other results are listed elsewhere or left out.

B1: il10ra_site1_normal_mot_6bb093d23f5042b6c551c363657da53b_0001_1_000000153_0001_51_65_H_._cedd301b4a0c43ec11f1ac2dbd5fc5c2_0001_1_0001_0000400014_0000001_0_af2pr … (protein)
chain: SIAELIRLLTEDAADNPEALALVRDLARKYLSGTLKPEELKETTEKILELTKTPRREEILKLLEE
B2: il10ra_site1_normal_mot_HHH_b1_05326_000000242_0001_1_20_H_._HHH_b1_07949_af2_0001_0000600011_0000001_0 (protein)
chain: SSSSNDEALELSQEAFRLALRGDLEEALEVLEEAAEIAEKNGDERLLETIEELLKSIRRLLSSSS
B3: il10ra_site1_normal_mot_HHH_b2_00984_000000042_0001_1_20_H_._HHH_b1_02950_0001_0000600024_0000001_0 (protein)
chain: SSSSSTKFYELAQRALRFAFRLSDQETLQRIWELIKEYVEHGDPRIEEELEELLEELEERSSSSS
B4: il10ra_site1_normal_mot_HHH_b1_06798_000000292_0001_1_19_H_._HHH_b2_05133_0001_0000100004_0000001_0 (protein)
chain: SSSSTLEFSVKFALREAEELLEEGDPEKARIILERLLEHLKEAGDEELFEEVEHLLREVEGSSSS
B5: il10ra_site1_sap_15_mot_HHH_b2_07596_000000080_0001_23_39_H_._HHH_b1_03720_0001_0000100009_0000001_0_0001 (protein)
chain: SSSSDEEEKEVEEILEEIERLIREGNPEEAARLIQELLQLIYRIKNPELLRELWELIRELASSSS
B6: il10ra_site1_normal_mot_ems_3hM_235_000000244_0001_46_64_H_._HHH_b2_07413_0001_0000100001_0000001_0 (protein)
chain: SSSSDVLEEVWELSRKVAELIRNGNPEEARELVEEIEELAKEFNNELVEFIARQLKLLIDSSSSS
B7: il10ra_site1_sap_25_mot_HHH_b2_04327_000000030_0001_41_55_H_._HHH_b2_00910_af2_0001_0000100003_0000001_0_0001 (protein)
chain: SSSSDKEKRELVEAAVRMAKQFSEEVVKFLLEAAEILAEDLNDPELRKLVEELEEYLEELSSSSS
B8: il10ra_site1_sap_7_mot_HHH_b2_00943_af2_000000149_0001_1_17_H_._HHH_b1_05509_0001_0000300007_0000001_0_0001_af2pred_0001 (protein)
chain: SSSSSSEEQERSLRHLIKAAKLIEDPELAKLSLRVAKRIAEAAGDEELLKEIEELLEELNSSSSS
B9: il10ra_site1_normal_mot_HHH_b1_07743_af2_000000164_0001_42_55_H_._HHH_b2_01433_0001_0000200017_0000001_0_af2pred_0001 (protein)
chain: SSSSSEEARRVARLLIEAIELAEKGNPEEAREVLEEAREIAEEAGDDILRATVEVARELVESSSS
B10: il10ra_site1_normal_mot_HHH_b2_02736_000000092_0001_22_38_H_._HHH_b2_05333_af2_0001_0000500039_0000001_0 (protein)
chain: SSSSSSDELEELEEKLEEAVERGDTQLIYRLLRRLIELARELRDEEAQELARRVVRRISSSSSSS
B11: il10ra_site1_sap_13_mot_HHH_b1_05860_000000142_0001_1_19_H_._HHH_b2_03829_0001_0000100004_0000001_0_0001 (protein)
chain: SSSSSEELEEAFRALRRLAELAHEGNPEEFKELAEKAQEIVEELGNRLLEVQLEFLKRRVLSSSS
B12: il10ra_site1_sap_19_mot_HHH_b2_04275_000000272_0001_20_36_H_._HHH_b2_06282_0001_0000300024_0000001_0_0001 (protein)
chain: SSSSDRAHEVYELSREAAELLREGDPEEARKLLEEAEELAEEAGSFSTLFSVRHMLKDLNSSSSS
B13: il10ra_site1_sap_31_mot_HHH_b2_07521_000000141_0001_20_37_H_._HHH_b2_03573_0001_0000200010_0000001_0_0001_af2pred_0001 (protein)
chain: SSSSSSSSSEEIFKLLREALEIDDPEEAREVVEEALRLAEEAGNLSFRRSAEFILEQLSSSSSSS
B14: il10ra_site1_sap_21_mot_HHH_b2_00293_000000095_0001_1_20_H_._HHH_eva_0545_0001_0000100005_0000002_0_0001 (protein)
chain: SSSSSDQQERVFREVAKLIERALRVSEEEAEELLERAKELAEELGNEYLRRAIEHAARARSSSSS
B15: il10ra_site1_sap_32_mot_HHH_b1_02492_000000051_0001_1_21_H_._HHH_b2_00563_af2_0001_0000200008_0000001_0_0001 (protein)
chain: SSSSDAHELYELLREAAELLADGNPEEARKLLEEAQEIAEEANNRVLLHTIRYVLEQVERASSSS
B16: il10ra_site1_sap_22_mot_HHH_b2_00273_000000062_0001_23_39_H_._HHH_b1_04796_af2_0002_0000200014_0000001_0_0001 (protein)
chain: SSSSDLSQEVFELSEEAAKLLHEGDPEEAREILEEAERLAEEAGNDNFKFAVRFLLKLLNSSSSS
B17: il10ra_site1_normal_mot_8756ee2cf497b5429c717dfc0c0bcfd6_0001_000000186_0001_1_13_H_._HHH_b2_05202_0001_0000200009_0000001_0_af2pred_0001 (protein)
chain: SSSSSSEESERIAELLRKALHISDEEEVREILEEARELAEEANSLNLRAVIEYLQKLLDSSSSSS
B18: il10ra_site1_sap_16_mot_HHH_b2_03328_af2_000000127_0001_1_19_H_._HHH_b2_04136_0001_0000100005_0000001_0_0001 (protein)
chain: SSSSDQERLEVRAILWFAKFTRNPDARRALLEAAKRIAEEAGDPEAEELVREVEEELERRSSSSS
B19: il10ra_site1_sap_12_mot_3fa423bb51912141a3931b06376c3fac_0001_af2_000000012_0001_37_50_H_._261ae5509348a94b37e27fd3a74e589d_0001_1_0001_0000200005_0000001_0_000 … (protein)
chain: SSSSSSDAEEEVERLLEEAKHVSRHRASHLLIQAYAIANQRNNEELLRLVEEVAKERISSSSSSS
B20: il10ra_site1_sap_4_mot_HHH_b1_06788_af2_000000238_0001_19_36_H_._HHH_b1_03008_af2_0001_0000100001_0000001_0_0001_af2pred_0001 (protein)
chain: SSSSDDEEFERVAELLRRVNELARRGNPEEAERLLEEAKELAEEANNPYLELSIRFAEKRNSSSS
B21: il10ra_site1_normal_mot_8756ee2cf497b5429c717dfc0c0bcfd6_0001_000000186_0001_1_13_H_._HHH_b1_04220_af2_0001_0000300023_0000001_1_af2pred_0001 (protein)
chain: SSSSSEEAREIVRLLRRIAELLAEGDDEEARELLEEAEELARETNDLIAEAVIRFLLKQVESSSS
B22: il10ra_site1_normal_mot_HHH_b2_01397_000000078_0001_23_39_H_._118502477c40609e6006f550458cdfaf_0001_0001_0000400042_0000002_0_af2pred_0001 (protein)
chain: SELEEEFEKALEKGTVEEFLRRLLEELEKEGDPRSALAVRFAIRVVEHGNPEVAKLFLKAIVDLR
B23: il10ra_site1_normal_mot_HHH_b2_07579_000000077_0001_1_19_H_._HHH_b1_05859_0001_0000100017_0000001_0_af2pred_0001 (protein)
chain: SSSSSLEEELIKLIRKAAELLSEGNPEEAQEVVEEAIELARELGNELALKIAEALLRQIESSSSS
B24: il10ra_site1_normal_mot_b26a303360aa2756ef5b79665ce52f45_0001_000000179_0001_1_11_H_._HHH_b2_08001_af2_0001_0000900021_0000001_0_af2pred_dldesign_0_af2pred (protein)
chain: SSSSSSSEAEKIVELIRKASELEDKEEAKKVLEEALELAKKAKNPVYVYAVEYALSQLSSSSSSS

Molecular target: il10ra, Q13651
Experiment: yeast display titration

Apparent Kd, inactive:
B1 no binding seen
B2 no binding seen
B3 no binding seen
B4 no binding seen
B5 no binding seen
B6 no binding seen
B7 no binding seen
B8 no binding seen
B9 no binding seen
B10 > 1270 nM
B11 no binding seen
B12 no binding seen
B13 no binding seen
B14 no binding seen
B15 no binding seen
B16 no binding seen
B17 no binding seen
B18 no binding seen
B19 no binding seen
B20 no binding seen
B21 no binding seen
B22 no binding seen
B23 no binding seen
B24 no binding seen

As a working copy, some entries already given:
Apparent Kd, inactive:
B8 no binding seen
B9 no binding seen
